Results as given in article PMC3889402.
Results are given in words; binding and its absence hold for the method and conditions named. Binding calls can cover weak binding; strength is not graded here.

Biological target: GST-tagged gp78 cytosolic domain
Test: pull-down; purified GST-tagged protein immobilised on glutathione beads and incubated with recombinant or purified protein; immunoblotting; both purified

binding: binds
B1: recombinant USP13 (enzyme, UniProt Q92995 1-863)
chain: MQRRGALFGMPGGSGGRKMAAGDIGELLVPHMPTIRVPRSGDRVYKNECAFSYDSPNSEGGLYVCMNTFLAFGREHVERHFRKTGQSVYMHLKRHVREKVRGASGGALPKRRNSKIFLDLDTDDDLNSDDYEYEDEAKLVIFPDHYEIALPNIEELPALVTIACDAVLSSKSPYRKQDPDTWENELPVSKYANNLTQLDNGVRIPPSGWKCARCDLRENLWLNLTDGSVLCGKWFFDSSGGNGHALEHYRDMGYPLAVKLGTITPDGADVYSFQEEEPVLDPHLAKHLAHFGIDMLHMHGTENGLQDNDIKLRVSEWEVIQESGTKLKPMYGPGYTGLKNLGNSCYLSSVMQAIFSIPEFQRAYVGNLPRIFDYSPLDPTQDFNTQMTKLGHGLLSGQYSKPPVKSELIEQVMKEEHKPQQNGISPRMFKAFVSKSHPEFSSNRQQDAQEFFLHLVNLVERNRIGSENPSDVFRFLVEERIQCCQTRKVRYTERVDYLMQLPVAMEAATNKDELIAYELTRREAEANRRPLPELVRAKIPFSACLQAFSEPENVDDFWSSALQAKSAGVKTSRFASFPEYLVVQIKKFTFGLDWVPKKFDVSIDMPDLLDINHLRARGLQPGEEELPDISPPIVIPDDSKDRLMNQLIDPSDIDESSVMQLAEMGFPLEACRKAVYFTGNMGAEVAFNWIIVHMEEPDFAEPLTMPGYGGAASAGASVFGASGLDNQPPEEIVAIITSMGFQRNQAIQALRATNNNLERALDWIFSHPEFEEDSDFVIEMENNANANIISEAKPEGPRVKDGSGTYELFAFISHMGTSTMSGHYICHIKKEGRWVIYNDHKVCASERPPKDLGYMYFYRRIPS
